{
  "source": "PubChem BioAssay AID651640",
  "about": "(Broad Institute, 2012)",
  "note": "Among all 350,000 compounds or so, about 6,000 (1.7%) were called active. The inconclusive results got no clear call from the source; some entries with a clear call stand among them for comparison. Rule as the data show it: active = CPE inhibition above about 20% (passing the limit was not always enough); inconclusive = no clear call, values can overlap the other calls; tested in BHK-21 cells.",
  "data": [
    {"experiment": "protection of cells from dengue 2 killing – plate reader, single concentration, primary screen (AID 651640);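 also: 0% = median of neutral control wells and 100% = median of positive control wells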", "conditions": "DENV2-infected cells, cytopathic effect rescue, at 9.99 µM, stronger effect = higher value", "values": [
      {"smiles": "COc1ccc2c3c([nH]c2c1)[C@H](CO)N(C(=O)CN(C)C)CC31CN(Cc2ccccc2Cl)C1", "CPE inhibition": "active: 32.5%"},
      {"smiles": "CC(C)(C)N(Cc1ccccc1)C(=O)COC(=O)C1CCN(c2ccc(C(F)(F)F)cn2)CC1", "CPE inhibition": "active: 43.9%"},
      {"smiles": "CN(C)N1C(N)=C(C#N)C(c2ccccc2)C2=C1CC(C)(C)CC2=O", "note": "(stereo not given)", "CPE inhibition": "active: 45.7%"},
      {"smiles": "Cc1ccsc1C(=O)N1CCCC(C(=O)c2cc(F)ccc2F)C1", "note": "(stereo not given)", "CPE inhibition": "inactive: -4.59%"},
      {"smiles": "C[C@@H]1CN([C@@H](C)CO)C(=O)Cc2cc(NC(=O)Cc3ccccc3)ccc2O[C@@H]1CN(C)Cc1ccc(C(=O)O)cc1", "CPE inhibition": "inconclusive: 25.7%"},
      {"smiles": "C[C@@H]1CN([C@@H](C)CO)C(=O)c2c(c3ccccc3n2C)-c2ccccc2CO[C@H]1CN(C)Cc1cccc(O)c1", "CPE inhibition": "active: 25.3%"},
      {"smiles": "C[C@@H]1CN([C@H](C)CO)C(=O)c2cccc(NC(=O)Nc3cccc4ccccc34)c2O[C@@H]1CN(C)C(=O)Nc1ccc(C(F)(F)F)cc1", "CPE inhibition": "inconclusive: 26.4%"},
      {"smiles": "C[C@H]1CN([C@@H](C)CO)C(=O)c2cc(C3=CCCCC3)cnc2O[C@H]1CN(C)C(=O)Cc1ccncc1", "CPE inhibition": "inconclusive: 26%"},
      {"smiles": "Cc1[nH][nH]c(=O)c1C=NCc1cccs1", "CPE inhibition": "inactive: 1.3%"},
      {"smiles": "CC(C)NC(=O)Nc1ccc2c(c1)C(=O)N([C@H](C)CO)C[C@@H](C)[C@H](CN(C)Cc1ccccc1)O2", "CPE inhibition": "active: 42.8%"},
      {"smiles": "CN1C(=O)c2cc(NC(=O)c3ccc(F)c(F)c3)ccc2OC[C@@H]2O[C@H](CC(=O)N[C@@H]3CCN(Cc4ccccc4)C3)CC[C@@H]21", "CPE inhibition": "inactive: -2.88%"},
      {"smiles": "O=C(CNC(=O)c1n[nH]c2ccccc12)Nc1cc(Cl)ccc1Cl", "CPE inhibition": "inconclusive: 43%"},
      {"smiles": "Clc1ccc(-c2ccc(C=Nc3ccc(N4CCOCC4)cc3)o2)c(Cl)c1", "CPE inhibition": "inconclusive: 26.3%"},
      {"smiles": "CCOC(=O)[C@H]1[C@H]2COc3ccccc3[C@@H]2N2C(=O)c3ccc(C)cc3NC(=O)[C@@]12C", "CPE inhibition": "inconclusive: 68.7%"},
      {"smiles": "Cc1ccc(NC2=C(Cl)C(=O)c3ccccc3C2=O)cc1", "CPE inhibition": "active: 83.3%"},
      {"smiles": "C[C@@H]1CN([C@H](C)CO)S(=O)(=O)c2ccc(-c3ccncc3)cc2O[C@H]1CN(C)S(=O)(=O)c1ccccc1F", "CPE inhibition": "inconclusive: 24.5%"},
      {"smiles": "Cn1ncc(SCc2ccccc2)c(Cl)c1=O", "CPE inhibition": "inconclusive: 32.2%"},
      {"smiles": "C[C@@H]1CN([C@H](C)CO)C(=O)Cc2cc(NC(=O)Nc3cccc4ccccc34)ccc2O[C@H]1CN(C)C(=O)NC1CCCCC1", "CPE inhibition": "inactive: -8.67%"},
      {"smiles": "C[C@@H]1CN([C@@H](C)CO)C(=O)c2cccc(NS(=O)(=O)c3cn(C)cn3)c2O[C@@H]1CN(C)S(=O)(=O)c1cn(C)cn1", "CPE inhibition": "active: 27.3%"},
      {"smiles": "CSc1ccc(-c2nc(CSCC(=O)NC3CC3)c(C)o2)cc1", "CPE inhibition": "inconclusive: 21.2%"},
      {"smiles": "CC(C)C(=O)Nc1cccc(C(=O)Nc2ccc(S(=O)(=O)N3CCOCC3)cc2)c1", "CPE inhibition": "inconclusive: 28.6%"},
      {"smiles": "COCCN(CCOC)C(=O)c1ccc(NS(=O)(=O)c2ccc3[nH]c(=O)[nH]c3c2)cc1", "CPE inhibition": "inconclusive: 40.4%"},
      {"smiles": "O=C(c1cccc(F)c1)N1CCCC(C(=O)N2CCCCC2)C1", "note": "(stereo not given)", "CPE inhibition": "inactive: 0.219%"},
      {"smiles": "Cc1noc(C)c1S(=O)(=O)N(C)C[C@H]1Oc2ccc(NC(=O)C3CCCCC3)cc2C(=O)N([C@H](C)CO)C[C@@H]1C", "CPE inhibition": "inconclusive: 21.6%"},
      {"smiles": "CCCN1C[C@@H](C)[C@@H](OC)CN(C)C(=O)c2cc(NC(=O)C3CCOCC3)ccc2OC[C@H]1C", "CPE inhibition": "active: 26.2%"},
      {"smiles": "C[C@H](CO)N1C[C@H](C)[C@@H](CN(C)Cc2ccc(Oc3ccccc3)cc2)Oc2ccc(NS(=O)(=O)c3ccc(Cl)cc3)cc2CC1=O", "CPE inhibition": "inactive: -2.48%"},
      {"smiles": "CN1CCN(c2ccc(CNC(=O)C3Cc4c(-c5ccc(Cl)cc5)ccnc4O3)cc2)CC1", "note": "(stereo not given)", "CPE inhibition": "inconclusive: 32.3%"},
      {"smiles": "N#Cc1c(Cl)cccc1N1CCCC1", "CPE inhibition": "inactive: -0.078%"},
      {"smiles": "O=C(CC(F)(F)F)N1C[C@@H]2[C@H](c3ccccc31)[C@@H](CO)N2C(=O)C1CC1", "CPE inhibition": "active: 35.5%"},
      {"smiles": "CC1(C)CC(=O)C2=C(C1)OC(N)=C(C#N)[C@@H]2c1ccccc1[N+](=O)[O-]", "CPE inhibition": "inconclusive: 20.6%"},
      {"smiles": "C#CCOCCOCCOCCNc1nc(N2CCN(C(=O)[C@H](C(C)C)n3cc(CCO)nn3)CC2)nc(N2CCN(C(=O)[C@H]([C@@H](C)CC)n3cc(CCCCN)nn3)CC2)n1", "CPE inhibition": "inconclusive: 29.9%"},
      {"smiles": "Cc1c2c(c(C)n1C)C(C(=O)NC1CCCCC1)N(Cc1ccccc1)C2=O", "note": "(stereo not given)", "CPE inhibition": "inactive: -1.2%"},
      {"smiles": "COc1ccc2c3c(n(C)c2c1)[C@H](CO)N(C(=O)Nc1ccccc1F)CC31CN(C)C1", "CPE inhibition": "active: 86%"},
      {"smiles": "Cc1csc(NC(C)c2nc3cc(Cl)c(N4CCCCC4)cc3n2CCOCCO)n1", "note": "(stereo not given)", "CPE inhibition": "inconclusive: 21.5%"},
      {"smiles": "O=C(NCc1ccccc1)NCC12CC3CC(CC(C3)C1)C2", "CPE inhibition": "inconclusive: 20.6%"},
      {"smiles": "COCCNC(=O)C[C@@H]1CC[C@H]2[C@@H](COc3ccc(NC(=O)COC)cc3C(=O)N2C)O1", "CPE inhibition": "inconclusive: 20.5%"},
      {"smiles": "CCCN(C)C[C@H]1OCCCC[C@@H](C)Oc2ccc(NC(=O)Nc3ccccc3)cc2C(=O)N([C@H](C)CO)C[C@@H]1C", "CPE inhibition": "inactive: -1.73%"},
      {"smiles": "O=C(CCOc1ccccc1)N1CCN(c2ccc(O)cc2)CC1", "CPE inhibition": "inconclusive: 21.3%"},
      {"smiles": "COc1ccc(NC(=O)c2ccc(-c3ccc([N+](=O)[O-])cc3)o2)cc1OC", "CPE inhibition": "inactive: 11.6%"},
      {"smiles": "O=C(C[C@H]1CC[C@@H]2[C@H](COC[C@H](O)CN2C(=O)c2cccnc2)O1)NCc1ccccc1", "CPE inhibition": "inconclusive: 58.1%"},
      {"smiles": "O=C(NC1CCCC1)[C@@H]1[C@@H](CO)[C@@H]2Cn3c(ccc(-c4cccnc4)c3=O)[C@@H]2N1CCc1ccccc1", "CPE inhibition": "inconclusive: 30.9%"},
      {"smiles": "COc1ccc(CCNC(=O)COC(=O)C2CC2C)cc1OC", "note": "(stereo not given)", "CPE inhibition": "inactive: 9.1%"},
      {"smiles": "CNC[C@H]1Oc2ccc(NC(=O)Nc3ccc4c(c3)OCO4)cc2CC(=O)N([C@H](C)CO)C[C@H]1C", "CPE inhibition": "inconclusive: 23.6%"},
      {"smiles": "O=C(Cc1cccc(NC(=O)C2CCN(C(=O)C3CCCCC3)CC2)c1)Nc1cccc(C(=O)N2CCCC2)c1", "CPE inhibition": "inconclusive: 87%"},
      {"smiles": "COc1ccc(-c2cnc3c(c2)C(=O)N([C@H](C)CO)C[C@@H](C)[C@@H](CN(C)C(=O)Cc2ccccn2)O3)cc1", "CPE inhibition": "inactive: 9.23%"},
      {"smiles": "CC/C(Cc1ccccc1)=N/NC(=O)CCn1nnc2ccccc21", "CPE inhibition": "inconclusive: 22.1%"},
      {"smiles": "CCCC#Cc1ccc2c(c1)O[C@@H](CN(C)C(=O)C1CC1)[C@@H](C)CN([C@@H](C)CO)S2(=O)=O", "CPE inhibition": "inconclusive: 38.4%"},
      {"smiles": "Cc1noc(C)c1S(=O)(=O)Nc1ccc2c(c1)C(=O)N([C@H](C)CO)C[C@H](C)[C@@H](CN(C)C(=O)Cc1ccccc1)OCCCC[C@H](C)O2", "CPE inhibition": "inconclusive: 21.1%"},
      {"smiles": "COc1ccc(-c2cn(CC[C@@H]3CC[C@H](NC(=O)c4cnccn4)[C@H](CO)O3)nn2)cc1", "CPE inhibition": "inactive: -1.82%"},
      {"smiles": "O=[N+]([O-])c1ccc(O)c(/C=N/n2cnc3ccccc32)c1", "CPE inhibition": "active: 70.4%"},
      {"smiles": "COCC(=O)Nc1ccc2c(c1)OC[C@@H](C)N(Cc1cncnc1)C[C@@H](C)[C@H](OC)CN(C)C2=O", "CPE inhibition": "active: 22.3%"},
      {"smiles": "COc1cccc(S(=O)(=O)N[C@@H]2C=C[C@@H](CC(=O)NCc3ccc(Cl)cc3)O[C@@H]2CO)c1", "CPE inhibition": "inactive: 7.27%"},
      {"smiles": "CC(=O)OC[C@H]1O[C@@H](O[C@H]2C[C@]3(C)C(C[C@@H](O)C4C([C@]5(C)CC[C@@H](C(C)(C)O)O5)CC[C@]43C)[C@@]3(C)CC[C@H](O)C(C)(C)C23)[C@H](O[C@@H]2O[C@@H](C)[C@H](O)[C@@H](O)[C@H]2O)[C@@H](O)[C@@H]1O", "note": "(stereo not given in full)", "CPE inhibition": "inconclusive: 35.7%"},
      {"smiles": "Cc1cccc(C)c1NC(=O)C1c2ccccc2OCC(=O)N1CC(F)(F)F", "note": "(stereo not given)", "CPE inhibition": "inconclusive: 79%"},
      {"smiles": "COc1cnc(SCc2c(Cl)cccc2Cl)nc1Cl", "CPE inhibition": "inactive: 0.477%"},
      {"smiles": "OCCNC(=S)Nc1ccc(Cl)c(Cl)c1", "CPE inhibition": "inconclusive: 59.4%"},
      {"smiles": "CCc1cc(=O)oc2cc(OCC(=O)NC3CC(C)(C)NC(C)(C)C3)ccc12", "CPE inhibition": "active: 35.7%"},
      {"smiles": "Cc1cccnc1NC(=O)CSc1ncnc2sc(C)c(C)c12", "CPE inhibition": "inconclusive: 21.8%"},
      {"smiles": "CC1CCN(C(=O)Cn2nnc(-c3ccc(N)cc3)n2)CC1", "CPE inhibition": "inconclusive: 33.6%"},
      {"smiles": "CCCNC(=O)C[C@H]1CC[C@@H]2[C@H](COC[C@H](O)CN2C(=O)CC)O1", "CPE inhibition": "active: 82.8%"},
      {"smiles": "COc1ccc(CN2CCNC(=O)C2CC(=O)N(C)C2CCCCC2)cc1OC", "note": "(stereo not given)", "CPE inhibition": "inconclusive: 21.1%"},
      {"smiles": "C[C@@H]1CN([C@H](C)CO)C(=O)c2cc(NC(=O)CCC(F)(F)F)ccc2O[C@@H](C)CCCCO[C@H]1CN(C)S(C)(=O)=O", "CPE inhibition": "inconclusive: 47.3%"},
      {"smiles": "CC(=O)N(/C=C1\\SC(=S)N(c2ccccc2)C1=O)c1ccccc1", "CPE inhibition": "inactive: 0.897%"},
      {"smiles": "C[C@H](CO)N1C[C@H](C)[C@H](CN(C)C(=O)Nc2ccc(F)cc2)Oc2ccc(NS(=O)(=O)c3ccc(F)cc3)cc2C1=O", "CPE inhibition": "inconclusive: 20.9%"},
      {"smiles": "O=S(=O)(c1ccccc1)N1CC2(C1)[C@H](c1ccccc1)[C@H](CO)N2CC1CCCC1", "CPE inhibition": "inactive: -12.4%"},
      {"smiles": "CCN1CCN(C(=O)CN(c2cccc(Br)c2)S(=O)(=O)c2ccccc2)CC1", "CPE inhibition": "inconclusive: 25.6%"},
      {"smiles": "O=C(NCCS(=O)(=O)N1CCN(c2ccccc2)CC1)C1CC1", "CPE inhibition": "active: 104%"},
      {"smiles": "COc1ccc(C(c2sc3ncnn3c2O)N2CCN(c3ccccc3F)CC2)cc1OC", "note": "(stereo not given)", "CPE inhibition": "inactive: -2.33%"},
      {"smiles": "O=C(NCC[C@@H]1CC[C@@H](NC(=O)c2cnccn2)[C@@H](CO)O1)Nc1ccc(F)cc1", "CPE inhibition": "inactive: 10.9%"},
      {"smiles": "CCCCn1c(N)c(N(CCC(C)C)C(=O)c2ccc(C)o2)c(=O)[nH]c1=O", "CPE inhibition": "inactive: -4.82%"}
    ]}
  ]
}
